The record followed here is article doi:10.1101/2023.09.23.559074, “Direct ionic stress sensing and mitigation by the transcription factor NFAT5” (bioRxiv, 2023).

Assay [1] has as its target GFP-PLD (superfolder GFP fused to the prion-like domain of NFAT5, a.a. 999-1454) (human) (UniProt O94916). Description: condition: only no added salt (20 mM Na-HEPES, 5% dextran); 90 uM; in vitro phase separation (droplet) assay, fluorescence or brightfield microscopy; as a1 but no added salt: 20 mM Na-HEPES pH 7.4, 1 mM TCEP, 5% dextran; GFP-CTD 70 uM, GFP-PLD 90 uM; both purified.

The target of assay [2] is GFP-CTD (superfolder GFP fused to the C-terminal domain of NFAT5, a.a. 544-1531) (human) (UniProt O94916). Description: in vitro phase separation (droplet) assay, fluorescence or brightfield microscopy; as a1 but without dextran; GFP-CTD 70 uM; NaCl up to 1000 mOsm/L; both purified.
Assay [3] shares this target. Description: condition: only no added salt (20 mM Na-HEPES, 5% dextran); 70 uM; in vitro phase separation (droplet) assay, fluorescence or brightfield microscopy; as a1 but no added salt: 20 mM Na-HEPES pH 7.4, 1 mM TCEP, 5% dextran; GFP-CTD 70 uM, GFP-PLD 90 uM; both purified.

Results are given in words; binding and its absence hold for the method and conditions named. Sequences can lack the tags named with a protein.

B1: GFP-PLD (superfolder GFP fused to the prion-like domain of NFAT5, a.a. 999-1454) (domain or fragment, human, UniProt O94916 999-1454, looked up)
chain: QIQNSVFQTMVQMQHSGDNQPQVNLFSSTKSMMSVQNSGTQQQGNGLFQQGNEMMSLQSGNFLQQSSHSQAQLFHPQNPIADAQNLSQETQGSLFHSPNPIVHSQTSTTSSEQMQPPMFHSQSTIAVLQGSSVPQDQQSTNIFLSQSPMNNLQTNTVAQEAFFAAPNSISPLQSTSNSEQQAAFQQQAPISHIQTPMLSQEQAQPPQQGLFQPQVALGSLPPNPMPQSQQGTMFQSQHSIVAMQSNSPSQEQQQQQQQQQQQQQQQQQSILFSNQNTMATMASPKQPPPNMIFNPNQNPMANQEQQNQSIFHQQSNMAPMNQEQQPMQFQSQSTVSSLQNPGPTQSESSQTPLFHSSPQIQLVQGSPSSQEQQVTLFLSPASMSALQTSINQQDMQQSPLYSPQNNMPGIQGATSSPQPQATLFHNTAGGTMNQLQNSPGSSQQTSGMFLFGIQNN
notes: NFAT5 (TonEBP), human, 1531 a.a. protein; prion-like domain (PLD), a.a; 999-1454; The methods for the bacterial construct say only 'NFAT5 PLD'; also called GFP-NFAT5 PLD; not shown: sfGFP, N-terminal, kept
With B1, in assay [1], the binding result is listed as “no binding”.

B2: GFP-CTD (superfolder GFP fused to the C-terminal domain of NFAT5, a.a. 544-1531) (domain or fragment, human, UniProt O94916 544-1531, looked up)
chain: DPAAAGALNVNVKKEISSPARPCSFEEAMKAMKTTGCNLDKVNIIPNALMTPLIPSSMIKSEDVTPMEVTAEKRSSTIFKTTKSVGSTQQTLENISNIAGNGSFSSPSSSHLPSENEKQQQIQPKAYNPETLTTIQTQDISQPGTFPAVSASSQLPNSDALLQQATQFQTRETQSREILQSDGTVVNLSQLTEASQQQQQSPLQEQAQTLQQQISSNIFPSPNSVSQLQNTIQQLQAGSFTGSTASGSSGSVDLVQQVLEAQQQLSSVLFSAPDGNENVQEQLSADIFQQVSQIQSGVSPGMFSSTEPTVHTRPDNLLPGRAESVHPQSENTLSNQQQQQQQQQQVMESSAAMVMEMQQSICQAAAQIQSELFPSTASANGNLQQSPVYQQTSHMMSALSTNEDMQMQCELFSSPPAVSGNETSTTTTQQVATPGTTMFQTSSSGDGEETGTQAKQIQNSVFQTMVQMQHSGDNQPQVNLFSSTKSMMSVQNSGTQQQGNGLFQQGNEMMSLQSGNFLQQSSHSQAQLFHPQNPIADAQNLSQETQGSLFHSPNPIVHSQTSTTSSEQMQPPMFHSQSTIAVLQGSSVPQDQQSTNIFLSQSPMNNLQTNTVAQEAFFAAPNSISPLQSTSNSEQQAAFQQQAPISHIQTPMLSQEQAQPPQQGLFQPQVALGSLPPNPMPQSQQGTMFQSQHSIVAMQSNSPSQEQQQQQQQQQQQQQQQQQSILFSNQNTMATMASPKQPPPNMIFNPNQNPMANQEQQNQSIFHQQSNMAPMNQEQQPMQFQSQSTVSSLQNPGPTQSESSQTPLFHSSPQIQLVQGSPSSQEQQVTLFLSPASMSALQTSINQQDMQQSPLYSPQNNMPGIQGATSSPQPQATLFHNTAGGTMNQLQNSPGSSQQTSGMFLFGIQNNCSQLLTSGPATLPDQLMAISQPGQPQNEGQPPVTTLLSQQMPENSPLASSINTNQNIEKIDLLVSLQNQGNNLTGSF
notes: NFAT5 (TonEBP), human, 1531 a.a. protein; C-terminal domain (CTD), a.a; 544-1531; The methods for the bacterial construct (pET-28a) say only 'NFAT5 CTD'; also called GFP-NFAT5 CTD; NFAT5 GFP-CTD; not shown: sfGFP, N-terminal, kept
As to B2, the binding entry is listed as “no binding (condition: without dextran; 70 uM)” in assay [2] and “no binding” in assay [3].
